For one experiment, the target named is Myc-ZNF212-WT (human) (UniProt Q9UDV6). Description: co-IP; 293T cells co-transfected with GFP-NEIL3 and Myc-ZNF212 WT or deletion mutants (N, M, C); 24 h; lysates with Benzonase; IP with anti-Myc bead, immunoblot. (In general: A western blot detects proteins with antibodies after separation by electrophoresis.)
For experiment [1], the target named is SFB-ZNF212 wild type (human) (UniProt Q9UDV6). Description: co-IP; 293T cells co-transfected with SFB-ZNF212 and Myc-TRAIP (WT or D1 to D5); lysates (NETN buffer) with benzonase; IP with anti-Flag bead, blot with anti-Myc antibody.

The chains behind the UniProt entries cited, without tags or fusion partners.
UniProt Q9UDV6: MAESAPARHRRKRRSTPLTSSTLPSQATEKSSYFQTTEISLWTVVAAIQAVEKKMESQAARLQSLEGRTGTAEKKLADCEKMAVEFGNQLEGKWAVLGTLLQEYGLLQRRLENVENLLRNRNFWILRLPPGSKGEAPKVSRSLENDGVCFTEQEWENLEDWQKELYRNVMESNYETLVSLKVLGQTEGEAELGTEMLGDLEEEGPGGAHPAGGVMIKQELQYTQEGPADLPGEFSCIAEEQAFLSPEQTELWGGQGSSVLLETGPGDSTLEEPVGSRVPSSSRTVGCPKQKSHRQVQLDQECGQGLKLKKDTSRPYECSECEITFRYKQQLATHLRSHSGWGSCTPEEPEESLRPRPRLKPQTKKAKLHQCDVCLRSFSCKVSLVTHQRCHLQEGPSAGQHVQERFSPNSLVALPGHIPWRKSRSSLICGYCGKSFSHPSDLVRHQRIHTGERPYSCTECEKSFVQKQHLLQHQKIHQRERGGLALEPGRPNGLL

Results are given in words; binding and its absence hold for the method and conditions named. Binding seen in cells or lysates may run through a third protein. Some entries that bind do so weakly or less than the wild type. Sequences can lack the tags named with a protein.

B1: GFP-NEIL3 (protein, UniProt Q8TAT5 1-605)
chain: MVEGPGCTLNGEKIRARVLPGQAVTGVRGSALRSLQGRALRLAASTVVVSPQAAALNNDSSQNVLSLFNGYVYSGVETLGKELFMYFGPKALRIHFGMKGFIMINPLEYKYKNGASPVLEVQLTKDLICFFDSSVELRNSMESQQRIRMMKELDVCSPEFSFLRAESEVKKQKGRMLGDVLMDQNVLPGVGNIIKNEALFDSGLHPAVKVCQLTDEQIHHLMKMIRDFSILFYRCRKAGLALSKHYKVYKRPNCGQCHCRITVCRFGDNNRMTYFCPHCQKENPQHVDICKLPTRNTIISWTSSRVDHVMDSVARKSEEHWTCVVCTLINKPSSKACDACLTSRPIDSVLKSEENSTVFSHLMKYPCNTFGKPHTEVKINRKTAFGTTTLVLTDFSNKSSTLERKTKQNQILDEEFQNSPPASVCLNDIQHPSKKTTNDITQPSSKVNISPTISSESKLFSPAHKKPKTAQYSSPELKSCNPGYSNSELQINMTDGPRTLNPDSPRCSKHNRLCILRVVGKDGENKGRQFYACPLPREAQCGFFEWADLSFPFCNHGKRSTMKTVLKIGPNNGKNFFVCPLGKEKQCNFFQWAENGPGIKIIPGC
Consider B1, for which the binding result with Myc-ZNF212-WT (human) is listed as “binds”.

B2: Myc-TRAIP wild type (protein, UniProt Q9BWF2 1-469)
chain: MPIRALCTICSDFFDHSRDVAAIHCGHTFHLQCLIQWFETAPSRTCPQCRIQVGKRTIINKLFFDLAQEEENVLDAEFLKNELDNVRAQLSQKDKEKRDSQVIIDTLRDTLEERNATVVSLQQALGKAEMLCSTLKKQMKYLEQQQDETKQAQEEARRLRSKMKTMEQIELLLQSQRPEVEEMIRDMGVGQSAVEQLAVYCVSLKKEYENLKEARKASGEVADKLRKDLFSSRSKLQTVYSELDQAKLELKSAQKDLQSADKEIMSLKKKLTMLQETLNLPPVASETVDRLVLESPAPVEVNLKLRRPSFRDDIDLNATFDVDTPPARPSSSQHGYYEKLCLEKSHSPIQDVPKKICKGPRKESQLSLGGQSCAGEPDEELVGAFPIFVRNAILGQKQPKRPRSESSCSKDVVRTGFDGLGGRTKFIQPTDTVMIRPLPVKPKTKVKQRVRVKTVPSLFQAKLDTFLWS
Consider B2, for which the binding entry in experiment [1] is listed as “binds”.

For the origin of these results see PMC9881131.
